The record followed here is paper PMC9344728.

Amino acid sequences for entries named in this document (tags omitted). Residues count along the entry.
UniProt P35869, residues 11-848: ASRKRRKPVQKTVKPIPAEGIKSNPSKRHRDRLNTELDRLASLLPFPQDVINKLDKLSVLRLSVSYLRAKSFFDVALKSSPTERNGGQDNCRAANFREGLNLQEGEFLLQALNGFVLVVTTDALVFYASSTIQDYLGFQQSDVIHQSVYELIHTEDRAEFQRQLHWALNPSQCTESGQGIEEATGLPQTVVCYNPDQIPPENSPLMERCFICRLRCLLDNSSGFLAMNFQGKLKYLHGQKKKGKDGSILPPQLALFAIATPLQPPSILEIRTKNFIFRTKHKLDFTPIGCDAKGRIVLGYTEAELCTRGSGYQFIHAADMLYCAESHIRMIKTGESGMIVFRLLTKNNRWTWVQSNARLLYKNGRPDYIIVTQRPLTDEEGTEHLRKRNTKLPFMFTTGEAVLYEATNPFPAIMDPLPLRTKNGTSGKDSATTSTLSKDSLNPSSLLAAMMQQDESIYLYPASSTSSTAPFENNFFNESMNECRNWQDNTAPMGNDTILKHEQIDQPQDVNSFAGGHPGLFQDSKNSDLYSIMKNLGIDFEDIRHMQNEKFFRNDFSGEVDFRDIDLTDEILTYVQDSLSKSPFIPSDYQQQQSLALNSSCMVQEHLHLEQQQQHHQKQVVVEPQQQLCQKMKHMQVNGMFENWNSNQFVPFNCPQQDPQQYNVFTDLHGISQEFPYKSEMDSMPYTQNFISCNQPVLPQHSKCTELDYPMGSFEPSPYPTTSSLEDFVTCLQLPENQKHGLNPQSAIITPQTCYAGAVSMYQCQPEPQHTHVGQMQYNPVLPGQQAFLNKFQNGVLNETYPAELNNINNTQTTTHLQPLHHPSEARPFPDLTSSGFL

These are yes or no findings as the source states them, for the method shown. In cells and extracts the contact can be indirect. Some results given as binding are weak or reduced against the parent protein; the word gives no strength.

For this experiment, the target named is aryl hydrocarbon receptor (UniProt P35869). As to the kind of experiment: co-IP; HEK293T cell lysate (IP lysis buffer, 200 ug protein) incubated with protein G magnetic beads and 2 ug anti-AhR antibody or IgG (NC) at 4 °C for 4 h; western blot with anti-UCHL3. On the technique in general: A western blot detects proteins with antibodies after separation by electrophoresis.

B1: ubiquitin C-terminal hydrolase L3 (enzyme, UniProt P15374 1-230)
chain: MEGQRWLPLEANPEVTNQFLKQLGLHPNWQFVDVYGMDPELLSMVPRPVCAVLLLFPITEKYEVFRTEEEEKIKSQGQDVTSSVYFMKQTISNACGTIGLIHAIANNKDKMHFESGSTLKKFLEESVSMSPEERARYLENYDAIRVTHETSAHEGQTEAPSIDEKVDLHFIALVHVDGHLYELDGRKPFPINHGETSDETLLEDAIEVCKKFMERDPDELRFNAIALSAA
Turning to B1, the binding entry is given as “binds”.
